Measurements taken from PubChem BioAssay AID2685 (National Center for Advancing Translational Sciences (NCATS), 2010).
The list shows a part of the results. The main result of the screen is listed elsewhere. These columns were measured beside it and carry no call. The list favours compounds with an active or inconclusive main result. The note in brackets gives the kind of curve behind each potency; many fits are weak.

Assay: qHTS Assay for Lipid Storage Modulators in Drosophila S3 Cells;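 on cell number change: cells counted by Cell Tracker Red CMTPX staining in the red channel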
Conditions: BODIPY lipid droplet fluorescence, 18-24 h; for cell number change: measured here: cell count max response, cells fed with added oleic acid
In short: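 Drosophila S3 cells loaded with oleic acid (400 uM, as added) and compounds at several concentrations; lipid droplets imaged by 488-nm laser-scanning cytometry, 500–530 nm intensity and object ratio to cell channel. Percent activity normalized to 20 uM Triacsin C.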

[1] = measured here: lipid fluorescence (Fed channel) AC50, cells fed with added oleic acid
[2] = measured here: cell number channel AC50, cells fed with added oleic acid

| SMILES | cell number change [%] | AC50 [1] | AC50 [2] |
| --- | --- | --- | --- |
| CC(=O)Nc1ccc(SCC(=O)Nc2sccc2C#N)cc1 | 29.3 |  |  |
| CC1C2C(C)N(C)C(=O)N(C)C2N(C)C(=O)N1C (stereo not given) | -9.79 | 29.1 µM [falling, single point] |  |
| CN1/C(=C\C(=O)c2cccnc2)C(C)(C)c2ccccc21 | 21.5 | 0.146 µM [rising, full curve, poor fit] |  |
| CC(=O)N/N=C(\C)CCc1ccccc1 | 62.4 |  |  |
| CCOc1cc(/C=N/NC(=O)CCn2nnc3ccccc32)ccc1O | 5.5 | 29.1 µM [rising, single point] |  |
| COc1ccc(-c2nn(-c3ccccc3)cc2/C=N/N2C(=O)CSC2=S)cc1 | -65.3 |  |  |
| CCc1nc(SCC(=O)Nc2cc(OC)ccc2OC)c2c(C)c(C)sc2n1 | -14.1 |  |  |
| COc1ccc(CC(=O)Nc2cccc(/C(C)=N/NC(=O)C3(C)CC3(Br)Br)c2)cc1 (stereo not given) | -19.4 | 23.1 µM [falling, single point] |  |
| O=C(O)CC(CC(=O)Nc1nncs1)c1ccccc1 (stereo not given) | -21.8 |  |  |
| COc1ccccc1C(C)NC(=O)c1ccc(NC(=O)CC2SC(N3CCCC3)=NC2=O)cc1 (stereo not given) | -10.8 | 25.9 µM [rising, partial curve, poor fit] |  |
| CCCCc1nnc(NC(=O)CCS(=O)(=O)c2ccc(C)cc2)s1 | -13.3 |  |  |
| COc1ccc(CNCC(O)(c2ccc(F)cc2)c2ccc(F)cc2)cc1OC | -13.5 | 0.116 µM [falling, full curve, poor fit] |  |
| O=C(COc1ccc2ccccc2c1)Nc1cccc2cccnc12 | -21 | 14.6 µM [falling, partial curve, poor fit] |  |
| Cc1ccc(C2=NN(C(=O)CCl)C(c3ccco3)C2)o1 (stereo not given) | -16.5 | 6.51 µM [falling, partial curve] | 7.31 µM [falling, single point] |
| Cc1ccc(OCCn2cc(C=O)c3ccccc32)cc1 | -23.9 |  |  |
| Oc1cccc(NC(=S)N=Nc2c(O)[nH]c3ccc(Br)cc23)c1 | -22 |  |  |
| CCOc1ccccc1NC(=O)CCNS(=O)(=O)c1ccc2[nH]c(=O)oc2c1 | 5.6 | 29.1 µM [falling, single point] |  |
| O=C(CCCC(=O)N(c1ccc(F)cc1)C(C(=O)NC1CCCC1)c1ccc(O)cc1)Nc1ccccn1 (stereo not given) | 20.3 |  |  |
| COc1ccc(/C=N/n2cnn(Cc3ccccc3Cl)c2=S)cc1OC | -52 | 29.1 µM [falling, single point] | 29.1 µM [falling, single point] |
| O=C(/C=C/c1ccccc1)C1=C(O)C(=O)N(CCO)C1c1ccccc1[N+](=O)[O-] (stereo not given) | -19.8 |  |  |
| Nc1nc(SCC(=O)NCc2ccccc2)[nH]c(=O)c1NC(=O)c1ccccc1F | -0.89 |  | 0.092 µM [rising, full curve, poor fit] |
| O=C(NC(N1CCOCC1)C(Cl)(Cl)Cl)c1ccco1 (stereo not given) | -21.2 | 16.4 µM [falling, partial curve, poor fit] |  |

| SMILES | cell number change [%] | AC50 [1] | AC50 [2] |
| --- | --- | --- | --- |
| O=C(Nc1cc(S(=O)(=O)N2CCOCC2)ccc1Cl)C1CCC1 | -75 |  | 29.1 µM [falling, single point] |
| COc1ccccc1OCC(=O)Nc1ccccc1C(=O)N1CCCC1 | -1.32 |  |  |
| Cc1nnc2n1N=CC=C(C(C)(C)C)S2 | -28.7 | 0.0651 µM [falling, full curve, poor fit] | 4.11 µM [falling, full curve, poor fit] |
| CC(NC(=O)Cc1cccs1)c1ccncc1 (stereo not given) | -22.5 | 0.13 µM [rising, full curve, poor fit] |  |
| COC(=O)c1c(NC(=O)COC(=O)[C@@H](NS(=O)(=O)c2ccc(C)cc2)C(C)C)sc2c1CCC2 | -58 |  | 29.1 µM [falling, partial curve, poor fit] |
| CC(C)(C)C(=O)Nc1nnc(-c2ccncc2)o1 | -1.81 | 0.0058 µM [falling, full curve, poor fit] |  |
| COc1cc(/C=C2/SC(=S)N(CC(=O)O)C2=O)ccc1OC(=O)c1ccco1 | -89.6 |  |  |
| CCN1CCN(c2cc(C)c3cc(NC(=O)CCC(=O)N4CCN(c5ccccc5OC)CC4)ccc3n2)CC1 | 27 | 1.16 µM [rising, full curve] | 2.06 µM [rising, partial curve] |
| Cc1cc(NC(=O)c2ccc(NC(=O)C(C)C)cc2)no1 | -20.3 | 2.91 µM [rising, single point] |  |
| COc1cc(CC(=O)OCC(=O)c2c[nH]c3ccccc23)cc(OC)c1OC | -17.7 |  |  |
| CC(C)Oc1ccc(NC(=O)Oc2ccccc2)cc1 | 5.09 | 5.8 µM [rising, partial curve, poor fit] |  |
| CCOc1ccc(/C=C/C(=O)N(CC)CC(=O)Nc2ccc3c(c2)OCCO3)cc1OC | 1.2 |  |  |
| Cc1coc2cc3oc(=O)c(CCC(=O)NCCCn4ccnc4)c(C)c3cc12 | 24.3 |  |  |
| CCC1CCCCN1CCCNC(=O)Cn1cc2c(n1)-c1c(oc(C(=O)N3CCCC3)c1C)CC2 (stereo not given) | 42.5 |  | 29.1 µM [rising, single point] |
| Cc1cc(C2=NNC(=Nc3ccccc3)SC2)c(C)n1C | 37.8 | 4.11 µM [falling, single point] |  |
| COC(=O)c1ccc(OC(=O)N2CCOCC2)cc1 | 9.49 | 29.1 µM [rising, single point] |  |
| CCN(C(=O)COC(=O)c1oc2ccc(OC)cc2c1C)C1CCS(=O)(=O)C1 (stereo not given) | -27.5 |  |  |
| O=C(CN1C(=O)C2C3C=CC(C3)C2C1=O)NCC1COc2ccccc2O1 (stereo not given) | 1.66 | 3.66 µM [rising, full curve] |  |
| O=C(COC(=O)c1cccc(Br)c1)NC(=O)NC1CCCC1 | 25.3 |  |  |
| COc1cccc(N2C(=O)c3ccncc3C2=O)c1 | -16.9 |  | 0.116 µM [falling, full curve, poor fit] |
| COc1cccc(S(=O)(=O)NCc2ccc(C(=O)N3CCN(c4ccccc4OC)CC3)cc2)c1 | -14 | 29.1 µM [falling, single point] |  |
| CCOC(=O)c1ccc(NC(=S)NNC(=O)COC)cc1 | 18.7 | 1.3 µM [falling, single point] |  |

2 records picked at random from those above, as already listed:

| SMILES | cell number change [%] | AC50 [1] | AC50 [2] |
| --- | --- | --- | --- |
| O=C(Nc1cc(S(=O)(=O)N2CCOCC2)ccc1Cl)C1CCC1 | -75 |  | 29.1 µM [falling, single point] |
| CC(NC(=O)Cc1cccs1)c1ccncc1 (stereo not given) | -22.5 | 0.13 µM [rising, full curve, poor fit] |  |
